According to the supplement of paper PMC8256030:
Some of the results follow. Repeats in this data set agree poorly, so a single value says little.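 HEK293T cells were given each compound shortly before transfection with a reporter in which red mCherry is followed by the SARS-CoV-2 frameshift element and then GFP in the −1 frame, so GFP appears only after frameshifting.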

The molecules below were run on SARS-CoV-2 -1 PRF reporter mCherry-FSE-GFP(-1) (assay: percent effect, decrease of GFP/mCherry ratio (-1 PRF reporter) relative to controls; higher = stronger frameshift inhibition). Conditions: 10 µM; 24 h; HEK293T.

Q: `CC(=O)c1ccc2c(c1)N(CCCN1CCN(CCO)CC1)c1ccccc1S2` was tested. Which percent effect did it give?
A: The percent effect was -0.613%.

Q: How did the percent effect turn out when `CCC[C@@H]1C[C@@H](C(=O)N[C@@H]([C@H]2O[C@H](SC)[C@H](O)[C@@H](O)[C@H]2O)[C@@H](C)O)N(C)C1` was run?
A: The percent effect was -2.22%.

Q: `CC(C)(O/N=C(\C(=O)N[C@@H]1C(=O)N2C(C(=O)[O-])=C(C[n+]3ccccc3)CS[C@H]12)c1csc(N)n1)C(=O)O` was tested. Which percent effect did it give?
A: The percent effect was -4.16%.

Q: For `C[C@H](C(=O)O)c1ccc(-c2ccccc2)c(F)c1` [esflurbiprofen], which percent effect is on record?
A: The percent effect was -0.244%.

Q: How did the percent effect turn out when `CC(N)CCCC(C)(C)O` (centres undefined) was run?
A: Its percent effect is -3.38%.

Q: With `C[C@]12CC[C@H]3C(=CCc4cc(O)ccc43)[C@@H]1CCC2=O` as the molecule, how does the percent effect read?
A: The percent effect was -4.28%.

Q: How did the percent effect turn out when `Nc1ncnc2c1ncn2[C@@H]1O[C@H](COP(=O)(O)OP(=O)(O)OP(=O)(O)O)[C@@H](O)[C@H]1O` [Adephos] was run?
A: Its percent effect is -2.08%.

Q: How did the percent effect turn out when `Nc1nc(=O)[nH]cc1F` was run?
A: Its percent effect is -0.125%.

Q: For `CCc1c2c(nc3ccc(OC(=O)N4CCC(N5CCCCC5)CC4)cc13)-c1cc3c(c(=O)n1C2)COC(=O)[C@]3(O)CC`, which percent effect is on record?
A: Its percent effect is -0.182%.

Q: With `CC(C)(CO)[C@@H](O)C(=O)NCCC(=O)NCCSSCCNC(=O)CCNC(=O)[C@H](O)C(C)(C)CO` as the molecule, how does the percent effect read?
A: The percent effect was 1.39%.

Q: Which percent effect does the source give for `C[C@](N)(Cc1ccc(O)cc1)C(=O)O` [metirosine] here?
A: Its percent effect is -3.41%.

Q: How did the percent effect turn out when `O=[N+]([O-])c1ccc(S(=O)(=O)Nc2nccs2)cc1` [nitrosulfathiazole] was run?
A: The percent effect was -1.99%.

Q: How did the percent effect turn out when `CC(O)Cn1cnc2c1c(=O)n(C)c(=O)n2C` (centres undefined) [proxyphylline] was run?
A: The percent effect was -1.2%.

Q: Which percent effect does the source give for `CCc1ccc(CCOc2ccc(CC3SC(=O)NC3=O)cc2)nc1` (centres undefined) [Pioglitazone] here?
A: The percent effect was 2.64%.
